In article PMC11787391:
No constants are given. Whether binding was seen depends on the method and setting. In cells and extracts the contact can be indirect. Some entries that bind do so weakly or less than the wild type. For part of these data: Sequences can lack the tags named with a protein. Values belong to the molecule of their own block, whether it stands above or below them.

By UniProt entry, the sequences of proteins in these tests, tags left out.
UniProt P63010: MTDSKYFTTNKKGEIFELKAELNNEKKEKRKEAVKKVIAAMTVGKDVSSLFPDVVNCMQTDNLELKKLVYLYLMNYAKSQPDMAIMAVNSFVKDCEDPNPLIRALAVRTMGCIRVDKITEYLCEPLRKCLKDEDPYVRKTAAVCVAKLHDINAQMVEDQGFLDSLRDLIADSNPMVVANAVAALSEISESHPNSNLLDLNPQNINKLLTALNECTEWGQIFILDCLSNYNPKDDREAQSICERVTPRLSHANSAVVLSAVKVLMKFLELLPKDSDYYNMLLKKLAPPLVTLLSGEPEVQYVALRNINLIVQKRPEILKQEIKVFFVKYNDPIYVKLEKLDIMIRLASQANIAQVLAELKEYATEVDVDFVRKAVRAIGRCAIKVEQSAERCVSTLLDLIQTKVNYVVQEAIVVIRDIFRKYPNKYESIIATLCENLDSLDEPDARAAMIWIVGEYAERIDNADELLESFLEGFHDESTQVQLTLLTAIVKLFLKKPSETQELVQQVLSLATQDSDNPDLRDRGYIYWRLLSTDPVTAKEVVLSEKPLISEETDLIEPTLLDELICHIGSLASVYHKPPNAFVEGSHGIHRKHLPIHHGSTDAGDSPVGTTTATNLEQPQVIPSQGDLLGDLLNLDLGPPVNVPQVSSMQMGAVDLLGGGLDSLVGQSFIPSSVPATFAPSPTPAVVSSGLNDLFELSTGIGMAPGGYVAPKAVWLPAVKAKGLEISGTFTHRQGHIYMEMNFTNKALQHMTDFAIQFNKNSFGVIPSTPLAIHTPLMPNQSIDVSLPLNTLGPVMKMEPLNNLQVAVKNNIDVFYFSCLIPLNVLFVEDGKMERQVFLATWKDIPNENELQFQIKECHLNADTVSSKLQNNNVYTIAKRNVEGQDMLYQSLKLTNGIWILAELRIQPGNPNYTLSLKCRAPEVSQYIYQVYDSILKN

How the values were obtained:
[1] = target: HA-GPN3 (human) (UniProt Q9UHW5); test: co-IP; 293T cells transfected with HA-GPN3, Flag-EGFR or control vector; lysates immunoprecipitated with anti-Flag or anti-HA magnetic beads
[2] = target: Endogenous GPN3 (human (endogenous in 293T and NCI-H1299)) (UniProt Q9UHW5); test: co-IP; immunoprecipitation of endogenous proteins from 293T and NCI-H1299 cells
[3] = target: Flag-GPN3 (human) (UniProt Q9UHW5); test: co-IP; 293T cells transfected with Flag-GPN3, GFP-EGFR or control vector; with or without 10 ng/ml EGF for 5 min (Fig. 2D) or overnight MPA (Fig. 3B) before lysis
[4] = target: Flag-EGFR (human) (UniProt P00533); test: co-IP; 293T cells transfected with HA-GPN3, Flag-EGFR or control vector; lysates immunoprecipitated with anti-Flag or anti-HA magnetic beads
[5] = target: GST-GPN3 (human) (UniProt Q9UHW5); test: pull-down; GST-GPN3 held on Anti-GST magnetic beads, incubated with lysates from 293T cells expressing the tagged prey; bead-associated proteins detected by immunoblotting; only the target purified

binding [1]: binds
Molecule: Flag-EGFR (from UniProt P00533 25-1210) (receptor)

binding [2]: binds
Molecule: Endogenous EGFR (from UniProt P00533 25-1210) (receptor)

binding [3]: binds
Molecule: GFP-EGFR (from UniProt P00533 25-1210) (receptor)

More lines, now with the values behind:

Molecule: HA-GPN3 (from UniProt Q9UHW5 1-284)
binding [4]: binds

Molecule: HA-AP2B1 (from UniProt P63010 1-937)
binding [5]: binds

B1: Flag-CLTA (protein, UniProt P09496 1-248)
chain: MAELDPFGAPAGAPGGPALGNGVAGAGEEDPAAAFLAQQESEIAGIENDEAFAILDGGAPGPQPHGEPPGGPDAVDGVMNGEYYQESNGPTDSYAAISQVDRLQSEPESIRKWREEQMERLEALDANSRKQEAEWKEKAIKELEEWYARQDEQLQKTKANNRVADEAFYKQPFADVIGYVTNINHPCYSLEQAAEEAFVNDIDESSPGTEWERVARLCDFNPKSSKQAKDVSRMRSVLISLKQAPLVH
binding [5]: binds
